In paper PMC9552611, “MtTRC-1, a Novel Transcription Factor, Regulates Cellulase Production via Directly Modulating the Genes Expression of the Mthac-1 and Mtcbh-1 in Myceliophthora thermophila”:
For part of these data: Where a protein sequence is shown, tags need not be part of it. For part of these data: For at least one entry, the source does not settle the construct or the ends of the probe.

What follows are sequences tested against T1, GST-MtTRC-1-DBD (Myceliophthora thermophila ATCC 42464) (UniProt G2Q031) (assay: EMSA). Conditions: EMSA: 20 mM Tris-base pH 7.5, 20 mM KCl, 10 mM MgCl2, 2 mM DTT, 0.5 ug/uL BSA, 0.2 mg/mL fish sperm DNA, 5% glycerol, 25 C 30 min, 10 ng probe; gel 5% PAGE 0.5x TBE 4 C; recombinant protein; residues 355-450; protein details: GST (N-terminal, pGEX-4T-1); label: Cy5; probe letters rebuilt from the primers and the genome.
T1 sequence (looked up): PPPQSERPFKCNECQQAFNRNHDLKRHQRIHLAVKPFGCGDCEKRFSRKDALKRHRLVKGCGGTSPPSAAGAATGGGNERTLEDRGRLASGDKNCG
“AACCGGGTACCTGGTGCCATCTTCAATATACTTGGGAATGCAGCCGCGGTGATTGTCGGTCTGGGCGCAACCTCATCGGCGTTGGCGGGCGATCAGCAGGTGCAACGGGGGGTGCAAACCGGGAAATGAGAAGAGCCCAGACCAACGAGGACCGCGGCATCGACCTCCGATCACCCTAAGTTGGGCCTAGTGCCGCCCCACCAAGGAACGGACCAGGGTAGTTTGCTCCTCCCGATCACTGGTAGTCGTGCCACAGTGCAGCGCATTCAAGGGCAAGCCGCTTTCCCAAATAGAGCAGGAAGGGCTGGTTTCAA (double strand) [Mtcbh-1-P6]”: binds.
“CATTCGGCATTGCAGCGGACCGCATCGTCCGCAAAGGCGGAGGCCGGGAAAGTTTCCCGTCTTTGAACTGAATGTAGTGTCTCGTCAATTTTGTTGGCGATGGTGTCGAGCTGATGACGGTGCAGTACGGACAATACTGCACTACGGATTAAAGACGTGTGGAATCATAGTTACTGCAACATGCCAAAACACGCAGTCAGTGGTCTTAATCGGCAAGACATGAAAGCATTCAAGGCTGAGCAATATGGATGTGTTTTACGACCGTTCTGTCTGTCCGCGGCTTGACTTGTGGGCGTTTCTAGCCTTCTTTTTCTGGAAGTGCCAAACCTACATACATACATTCCACCTCCCAGATCTGGGAGTTGCAAAAGGGGCGCAAGGGGCGCCAAGGGGGGGCATCCATCTCCATTTCAGGGGTTACTTCC (double strand) [Mthac-1-P7]”: binds.
“GGTATCATTACGAGAGGTACTGTACAACGAGGTTCCGTACCGTGGGAGACGGGCCGCGGGCCGTCGATGCTCAAACAAGACGAGTGTGCCAGTCAGCCATCGAATGATGGGTCGTCATGGACAACGGAGCAATGCCATCTCGGGACTGGGGCCACCGACCTGCCGGCAGGGGGAGGAGAAAAAAAAGGGGGCGGCGTCGGCAAGATGGCAAGAGGTCTGGGAGATAGTCAAGGACGAAGGGCCAAGCGGGTCGTGTCGCTTGCACTCTGGTGAGGCTCGCTAGTGCTTGCGGTGGGTGAGGTGGATCAGAGTAGAGG (double strand) [Mtcbh-1-P2]”: binds.
“CACTCTGGTGAGGCTCGCTAGTGCTTGCGGTGGGTGAGGTGGATCAGAGTAGAGGCCCGATGGAGAATGGGCGCTGCGGTGACAAGCCTAACCGGTCGATAGCGGCTAGTAGGCTGGGCGGCGATGTCACGTTATGGTTGCCACGGCCGGGCACGGACTGAGGGCATCGTTCGAGGACGTGGAGCCGTGCGATGGAAGCGATTAAGGTTGCTGAAGGGTCGGCGAGGGCAACCACACACCTCATTGGAGGAGTCTGGGCGCGGCAGCCAGGTTATCAGGGGTGACACGGAAGGCGTCCGCCGAGTGCGACTCTGCGAAGCCCAGG (double strand) [Mtcbh-1-P3]”: binds.
“AGCGAGATCCGTTGCGAAGGGAAGGGATGGGGTGTGCTGCGGCTTTCTCCGCTCTCGTGCGCCTTTTGCTTGAATCTAGTGTACACCAGGGTAGGCTCCGAAGGAGTATCTACGGCAGCGCTGTTCGTGCTGCGTTGAGAGTCAGGGCGGAGACGAGCAGGCGACAGGAGCCTCGCACCGGCACTTCGGATCGCATTTGCGCGGAGCGTCAAATACGCTCTTCTGCGGTCATCAGAGAGCATCGTGAACCAAGGTTCTTCCGCAGGGCGGCCTGGGCTTCGCAGAGTCGCACTCGGCGGACGCCTTCCGTGTCA (double strand) [Mtcbh-1-P4]”: binds.
“ATCTCGGGACTCGCACGACGTAGGAGGACTTATTAGTGCTTTCTGCAAATGGACCGGTGGTTTCTTCTCCTGCCAGGCTGAATAACGGCTGACAAGAGGGCGGTCGGGTGTGATGTGCAGAGCAGTATTATTGTATTGACCGTATCGAGGCGCCTTCCCAATTCCTCAATACTTGTATGTCAGGGAACAAAAGCGTCAAGGGAGTTGCATTGCGCGTGACGAGTCTGTCAAGTTGGCTCGGCCAGCACTGACGACTCGAGCGAACAGCTGGTTGGCTGCGTTGGCGAAGAGGACAGTCTGGCTTCTTTGCTGGGCAAGGAAGGTTCCTGTTCGAATGATGAGGGCTCCAGGCT (double strand) [Mthac-1-P1]”: binds.
“TCAAACGGTCGGGCTGCTATTCCAAATATGTCCAAAACATGTTAGTGCACGCAAGACGATCGAGATCAGTGCTGTGAATTACAGCAGCAGCCGCAGCAGCATACACTTCTACACTTAGAAACTGTTGTGTAGCACAGCCGTCGTGTATGTATGCACAACACGAGCGTGGCGCACCCAGCGAAGTCAGCATTAGCTGGAGATTGGCGCACCATTGGCCCACACTCCGCGAGGTTGTCTGATTCAAGTCCGACCGCGTAAGACGTCGCCTTGCAAGCCTTCGTAAAAAAAAAAAAAAAGAGACGCCAAAGCGGCAGTGCAGAAAAGCGGGCACAACCTTAAC (double strand) [Mthac-1-P4]”: binds.

These sequences were tested against T1, GST-MtTRC-1-DBD (Myceliophthora thermophila ATCC 42464) (assay: DNase I footprinting). Conditions: Footprinting: 400 ng probe in 40 uL, 25 C 30 min; recombinant protein; residues 355-450; protein details: GST (N-terminal, pGEX-4T-1); label: FAM; probe letters rebuilt from the primers and the genome; part of a longer molecule.
“TGGGCGGCGATGTCACGTTATGGTTGCCACGGCCGGGCACGGACTGAGGGCATCGTTCGAGGACGTGGAGCCGTGCGATGGAAGCGATTAAGGTTGCTGAAGGGTCGGCGAGGGCAACCACACACCTCATTGGAGGAGTCTGGGCGCGGCAGCCAGGTTATCAGGGGTGACACGGAAGGCGTCCGCCGAGTGCGACTCTGCGAAGCCCAGGCCGCCCTGCGGAAGAACCTTGGTTCACGATGCTCTCTGATGACCGCAGAAGAGCGTATTTGACGCTCCGCGCAAATGCGA (double strand) [Mtcbh-1-P4-FP (footprint probe)]”: binds.
“GCAACATGCCAAAACACGCAGTCAGTGGTCTTAATCGGCAAGACATGAAAGCATTCAAGGCTGAGCAATATGGATGTGTTTTACGACCGTTCTGTCTGTCCGCGGCTTGACTTGTGGGCGTTTCTAGCCTTCTTTTTCTGGAAGTGCCAAACCTACATACATACATTCCACCTCCCAGATCTGGGAGTTGCAAAAGGGGCGCAAGGGGCGCCAAGGGGGGGCATCCATCTCCATTTCAGGGGTTACTTCCGGCGGCCGTTCGGTGGATGTTCCGAGACTTCTT (double strand) [Mthac-1-P7-FP (footprint probe)]”: binds.
